Values quoted from earlier work in US5637320A, “Controlled absorption naproxen formulation for once-daily administration” (Elan Corporation, PLC, priority 1990, dated 1997).

Experiments:
[1] = generally, compared with administration as the free acid
[2] = by many regulatory agencies
postpartum women = details: sixty postpartum women, oral
[3] = reportedly
[4] = tested on: patients with rheumatoid arthritis; details: twenty-four patients with rheumatoid arthritis

SMILES | peak plasma concentrations versus naproxen free acid [1] | toxicity [2] | plasma naproxen levels at which reduced pain intensity was demonstrated (postpartum women) [µg/mL] | Plasma naproxen concentrations required for anti-inflammatory or analgesic effects [3] [µg/mL] | plasma naproxen levels at which clinical response occurred [4]
COc1ccc2cc([C@H](C)C(=O)O)ccc2c1 [naproxen sodium] | higher and are attained more rapidly |  |  |  | 
COc1ccc2cc([C@H](C)C(=O)O)ccc2c1 [naproxen, (S)-6-methoxy-methyl-2-naphthaleneacetic acid] |  | acceptably non-toxic | 30 to 70 | 30 to 90 | above 50 μg/ml
